By UniProt entry, the sequences of proteins in these tests, tags left out. Where a name states a change or a piece, a line headed by the entry shows the natural chain unless it says otherwise.
UniProt Q9BUF7: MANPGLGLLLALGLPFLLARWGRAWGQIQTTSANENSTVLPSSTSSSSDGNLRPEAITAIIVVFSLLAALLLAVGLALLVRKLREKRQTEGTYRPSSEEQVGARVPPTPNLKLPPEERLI
UniProt P35240: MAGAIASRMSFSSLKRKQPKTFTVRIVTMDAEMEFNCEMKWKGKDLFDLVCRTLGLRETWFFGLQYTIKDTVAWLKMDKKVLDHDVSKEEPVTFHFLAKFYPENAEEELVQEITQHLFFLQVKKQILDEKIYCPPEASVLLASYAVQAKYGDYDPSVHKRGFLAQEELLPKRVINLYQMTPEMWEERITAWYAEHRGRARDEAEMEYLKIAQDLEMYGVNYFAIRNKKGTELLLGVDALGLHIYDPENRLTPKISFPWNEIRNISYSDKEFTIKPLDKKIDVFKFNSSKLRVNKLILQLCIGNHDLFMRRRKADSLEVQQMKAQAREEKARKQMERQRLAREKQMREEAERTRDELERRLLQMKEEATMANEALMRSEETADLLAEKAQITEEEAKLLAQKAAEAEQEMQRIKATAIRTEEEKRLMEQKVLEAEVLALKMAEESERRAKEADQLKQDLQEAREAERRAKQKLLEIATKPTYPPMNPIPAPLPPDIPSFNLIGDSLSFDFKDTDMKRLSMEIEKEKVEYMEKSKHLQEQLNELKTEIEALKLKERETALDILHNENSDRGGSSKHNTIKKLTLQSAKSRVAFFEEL
UniProt Q8N3R9: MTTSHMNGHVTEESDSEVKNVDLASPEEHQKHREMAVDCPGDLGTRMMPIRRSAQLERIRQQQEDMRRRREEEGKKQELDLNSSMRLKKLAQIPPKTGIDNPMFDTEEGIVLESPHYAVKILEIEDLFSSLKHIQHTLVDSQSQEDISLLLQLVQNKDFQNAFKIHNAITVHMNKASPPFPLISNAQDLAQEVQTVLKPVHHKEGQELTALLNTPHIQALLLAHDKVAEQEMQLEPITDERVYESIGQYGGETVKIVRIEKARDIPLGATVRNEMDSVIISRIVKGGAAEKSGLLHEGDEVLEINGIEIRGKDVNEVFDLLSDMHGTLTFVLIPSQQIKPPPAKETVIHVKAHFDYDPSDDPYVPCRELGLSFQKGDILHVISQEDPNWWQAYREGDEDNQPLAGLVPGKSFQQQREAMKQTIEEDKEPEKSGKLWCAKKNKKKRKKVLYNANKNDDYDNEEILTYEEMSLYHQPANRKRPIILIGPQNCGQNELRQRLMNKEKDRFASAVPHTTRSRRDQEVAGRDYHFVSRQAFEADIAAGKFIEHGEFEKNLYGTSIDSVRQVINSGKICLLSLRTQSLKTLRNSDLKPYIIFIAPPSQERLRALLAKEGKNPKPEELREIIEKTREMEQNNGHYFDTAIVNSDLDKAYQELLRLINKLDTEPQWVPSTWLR

In PMC12581665:

Tests used:
[1] = biological target: Myc-CRB3A ΔPBM (CRB3A mutant lacking the ERLI sequence) (human) (UniProt Q9BUF7); experiment: co-IP; anti-Myc immunoprecipitation from lysates of SKCO-15 cells transfected with Myc-Crb3 WT or mutants; relaxation lysis buffer (10 mM HEPES, 10 mM NaCl, 3.5 mM MgCl2, 100 mM KCl, 1% octyl glucoside); 5 ug/mL antibody or control IgG overnight at 4°C; protein G Dynabeads; Western blotting for NF2, Ezrin, PALS1 and Myc-tag
[2] = biological target: Myc-CRB3A mFBD (CRB3A mutant with 3 amino acid point mutations in the FERM-binding domain) (human) (UniProt Q9BUF7); experiment: as above

binding [1] | binding [2] | Substance
binds | binds | Merlin (NF2), endogenous (from UniProt P35240 1-595)
– | binds | PALS1 (protein associated with Lin seven), endogenous (from UniProt Q8N3R9 1-675)

Results are given in words; binding and its absence hold for the method and conditions named. In cells and extracts the contact can be indirect. A result given as binding can be weak or reduced; the word gives no strength.
